Experimental data: PMC11790492
Results are given in words; binding and its absence hold for the method and conditions named. Some results given as binding are weak or reduced against the parent protein; the word gives no strength.

How the values were obtained:
[1] = biological target: KorB (wild type), C-terminally His-tagged (plasmid RK2 (Escherichia coli)) (UniProt P07674); test: condition: 200 μM protein partner injected into 20 μM KorB dimer; ITC; 20 μM KorB dimer (WT or mutant) in the cell, 200 μM protein partner injected; 25 °C; 10 mM Tris–HCl, 150 mM NaCl, pH 8.0; one-site binding model; duplicate; both purified
[2] = biological target: KorB (F249A), C-terminally His-tagged (plasmid RK2 (Escherichia coli)) (UniProt P07674); test: as above
[3] = biological target: KorB∆N30∆CTD, His-tagged (plasmid RK2 (Escherichia coli)) (UniProt P07674); test: crystal structure; KorBΔN30ΔCTD–KorA complex with 14 bp OA DNA duplex, no CTPγS added; 2.7 Å; two KorA, two KorB subunits and one DNA duplex in the asymmetric unit; both purified
[4] = biological target: T1, E. coli RNA polymerase σ^70 holoenzyme (Eσ^70) (E. coli) (UniProt P0A7Z4+P0A8V2+P0A8T7+P0A800+P00579); test: condition: 2.5-fold molar excess (12.5 μM) of KorA over 5 μM Eσ^70; native MS; 5 μM Eσ^70 on 5.5 μM 100 bp PkorA DNA with 2.5-fold excess (12.5 μM) KorA dimer; 150 mM ammonium acetate pH 7.5, 0.01% Tween-20; both purified
[5] = biological target: T1, E. coli RNA polymerase σ^70 holoenzyme (Eσ^70) (E. coli); test: condition: 2.5-fold excess KorA dimer over 5 μM Eσ^70; native MS; 5 μM Eσ^70 without promoter DNA with 2.5-fold excess KorA dimer; 300 mM or 150 mM ammonium acetate pH 8.0, 0.01% Tween-20; both purified
[6] = biological target: T1, E. coli RNA polymerase σ^70 holoenzyme (Eσ^70) (E. coli); test: condition: 2.5-fold molar excess (12.5 μM) of KorB over 5 μM Eσ^70; native MS; 5 μM Eσ^70 on 5.5 μM 100 bp PkorA DNA with 2.5-fold excess (12.5 μM) KorB dimer; 500 mM ammonium acetate pH 7.5, 0.01% Tween-20; both purified
[7] = biological target: KorB∆N30∆CTD, His-tagged (plasmid RK2 (Escherichia coli)) (UniProt P07674); test: crystal structure; KorBΔN30ΔCTD with 1 mM MgCl2 and 1 mM CTPγS; 2.3 Å; six protomers (three dimers) in the asymmetric unit, domain-swapped; both purified

Question: For “KorA (Y84A), C-terminally His-tagged (from UniProt P03052)”, which binding [1] is on record?
Answer: Its binding is “no binding”.

Question: Which results are given for “KorA (wild type), C-terminally His-tagged (from UniProt P03052 1-101)”?
Answer: binding [2]: no binding; binding [3]: binds; binding [4]: no binding; binding [5]: no binding

Question: How did the binding [6] turn out when “KorB (wild type), C-terminally His-tagged (from UniProt P07674 1-358)” was run?
Answer: Its binding is “no binding”.

Question: “KorB∆N30∆CTD, His-tagged (from UniProt P07674 31-253) (domain or fragment)” was tested. Which binding [7] did it give?
Answer: Its binding is “binds”.

Question: What about the binding [3] of the same substance?
Answer: The binding was “binds”.
